The record followed here is article PMC3972135.

Amino acid sequences for entries named in this document (tags omitted).
UniProt P80297: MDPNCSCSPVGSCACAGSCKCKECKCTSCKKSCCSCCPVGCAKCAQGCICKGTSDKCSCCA

No constants are given. Whether binding was seen depends on the method and setting. For some assays here: In cells and extracts the contact can be indirect. Some results given as binding are weak or reduced against the parent protein; the word gives no strength. Tags and fused reporters may be left off the sequences shown.

The target in experiment [1] is T1, FHL3 mutant with sequential deletion of LIM4 (FHL3d4), GAL4 DNA-binding domain fusion (human) (UniProt Q13643).
T1 sequence: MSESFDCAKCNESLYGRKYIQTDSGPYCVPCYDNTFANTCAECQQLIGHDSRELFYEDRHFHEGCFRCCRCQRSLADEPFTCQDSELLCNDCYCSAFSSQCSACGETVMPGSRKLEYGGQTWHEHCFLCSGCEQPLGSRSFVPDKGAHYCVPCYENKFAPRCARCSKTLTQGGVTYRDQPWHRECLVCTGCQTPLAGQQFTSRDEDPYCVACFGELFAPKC
As to the kind of experiment: two-hybrid; co-transformation of pAS2-1/FHL3d4 and pACT2/MT-1X into yeast Y190; SD/-Leu-Trp-His, coloration (β-galactosidase) analysis.

Experiment [2] deals with T2, HA-FHL3 (human) (UniProt Q13643).
T2 sequence: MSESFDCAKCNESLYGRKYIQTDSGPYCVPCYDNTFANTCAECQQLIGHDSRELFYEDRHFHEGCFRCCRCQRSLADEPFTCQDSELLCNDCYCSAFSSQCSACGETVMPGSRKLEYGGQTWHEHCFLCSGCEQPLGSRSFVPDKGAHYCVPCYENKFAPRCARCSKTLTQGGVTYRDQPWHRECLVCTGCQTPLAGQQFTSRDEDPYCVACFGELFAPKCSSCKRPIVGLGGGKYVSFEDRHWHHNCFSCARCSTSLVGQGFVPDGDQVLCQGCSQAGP
As to the kind of experiment: co-IP; 293T cells co-transfected with pCMV-HA/FHL3 and pCMV-Myc/MT-1X, Triton lysis buffer (20 mM Tris-HCl pH 7.6, 120 mM NaCl, 1% Triton X-100), 4°C; methods: IP with anti-Myc or control anti-IgG; blot with anti-myc and anti-HA.

Consider “full length MT-1X, GAL4 activation domain fusion (from UniProt P80297 1-61)”, for which the binding entry in experiment [1] was “binds”.

In the case of Myc-MT-1X (from UniProt P80297 1-61), the binding result in experiment [2] is on record as “binds”.
